Assay results published in patent US20060160897A1, “Topical Use of Valproic Acid for the Prevention or Treatment of Skin Disorders” (priority 2003, published 2006).
For at least one compound, name, drawing or mass did not settle the structure.

Tested on: HaCaT cells
Experiment: MTT assay, growth of human immortalized keratinocytes
Type: cell-based
Conditions: MTT on day 3, combinations VPA 1 mM + Retinoic Acid 1 or 2 μM, FIG. 2
Description: MTT assay: This calorimetric assay detects the formation of formazan which is proportional to the number of cells present. Tissue culture medium containing drugs was removed and 200 μl of DME containing 2 mg/ml MTT ((3-4, 5-dimethyl thiazol-2yl) 2,5-diphenyltetrazolium bromide) was added to each well. 96-well plates were incubated at 37 ° C., and 10% CO2 for 30 minutes. Medium containing MTT was then removed and the cells were washed once with PBS. Following removal of the PBS, 200 μL DMSO was added to each well and plates were placed on a rotating platform shaker for 5 minutes. Results were obtained by reading the absorbance at a wavelength of 550 nm using a spectrophotometer. Results are expressed as percentages setting the control as 100%.
FIG. 1 graphically depicts the results of growth assays performed on human immortalized keratinocytes (HaCaT cells), treated for three days with the indicated compounds. Drugs were added on the same day of plating (day 0). The MTT assay (to measure cell proliferation) was carried out on day 3. Various combinations of the drugs were used in the growth assays.
Cells were plated in wells on day 0. […] The MTT assay was carried out on day 3. Various combinations of the drugs were also used in the growth assays. […] Thus, the combinatorial activity of these two drugs must be explained via synergistic activity of this treatment. […]

CC1=C(/C=C/C(C)=C/C=C/C(C)=C/C(=O)O)C(C)(C)CCC1 [RA, Retinoic Acid]
cell growth (MTT assay): inhibited growth
